In PMC11048102:
These are yes or no findings as the source states them, for the method shown. In cells and extracts the contact can be indirect. Some results given as binding are weak or reduced against the parent protein; the word gives no strength.

The chains behind the UniProt entries cited, without tags or fusion partners. Where a name states a change or a piece, a line headed by the entry shows the natural chain unless it says otherwise. A line that says so, or that is headed by a name, gives the form on record, which may keep a tag or linker. Residues count along the entry.
UniProt P35228: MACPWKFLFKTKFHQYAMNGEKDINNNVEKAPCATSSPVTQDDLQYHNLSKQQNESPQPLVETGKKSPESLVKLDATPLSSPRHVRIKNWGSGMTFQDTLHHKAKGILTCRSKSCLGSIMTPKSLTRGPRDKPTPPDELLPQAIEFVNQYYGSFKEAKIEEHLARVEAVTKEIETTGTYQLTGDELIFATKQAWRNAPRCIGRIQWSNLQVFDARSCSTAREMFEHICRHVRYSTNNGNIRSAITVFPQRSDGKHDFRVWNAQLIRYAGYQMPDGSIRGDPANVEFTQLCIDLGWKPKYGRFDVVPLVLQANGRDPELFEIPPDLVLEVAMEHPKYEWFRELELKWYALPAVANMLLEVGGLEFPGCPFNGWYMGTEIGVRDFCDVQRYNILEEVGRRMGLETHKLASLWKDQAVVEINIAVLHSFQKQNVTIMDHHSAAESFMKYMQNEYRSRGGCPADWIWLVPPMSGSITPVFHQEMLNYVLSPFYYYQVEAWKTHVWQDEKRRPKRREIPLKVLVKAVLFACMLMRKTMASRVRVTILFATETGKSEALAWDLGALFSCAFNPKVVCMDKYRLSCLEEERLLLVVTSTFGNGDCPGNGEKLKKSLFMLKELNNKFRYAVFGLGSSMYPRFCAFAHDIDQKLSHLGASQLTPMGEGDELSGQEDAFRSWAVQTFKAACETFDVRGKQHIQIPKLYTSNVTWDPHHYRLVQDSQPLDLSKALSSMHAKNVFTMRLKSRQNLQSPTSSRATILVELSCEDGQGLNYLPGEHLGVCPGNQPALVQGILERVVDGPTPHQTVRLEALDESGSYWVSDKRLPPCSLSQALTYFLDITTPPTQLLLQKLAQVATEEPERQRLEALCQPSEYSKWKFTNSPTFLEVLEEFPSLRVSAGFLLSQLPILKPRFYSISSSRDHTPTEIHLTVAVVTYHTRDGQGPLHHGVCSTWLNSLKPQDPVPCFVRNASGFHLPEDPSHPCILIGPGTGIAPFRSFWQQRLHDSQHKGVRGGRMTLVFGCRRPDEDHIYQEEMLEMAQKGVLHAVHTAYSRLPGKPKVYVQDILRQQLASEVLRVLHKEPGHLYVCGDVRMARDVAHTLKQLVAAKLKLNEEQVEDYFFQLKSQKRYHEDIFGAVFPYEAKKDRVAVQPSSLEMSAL
AcGFP1-tagged human iNOS fragment (amino acids 181–335): residues 181-335 of P35228
UniProt Q09028: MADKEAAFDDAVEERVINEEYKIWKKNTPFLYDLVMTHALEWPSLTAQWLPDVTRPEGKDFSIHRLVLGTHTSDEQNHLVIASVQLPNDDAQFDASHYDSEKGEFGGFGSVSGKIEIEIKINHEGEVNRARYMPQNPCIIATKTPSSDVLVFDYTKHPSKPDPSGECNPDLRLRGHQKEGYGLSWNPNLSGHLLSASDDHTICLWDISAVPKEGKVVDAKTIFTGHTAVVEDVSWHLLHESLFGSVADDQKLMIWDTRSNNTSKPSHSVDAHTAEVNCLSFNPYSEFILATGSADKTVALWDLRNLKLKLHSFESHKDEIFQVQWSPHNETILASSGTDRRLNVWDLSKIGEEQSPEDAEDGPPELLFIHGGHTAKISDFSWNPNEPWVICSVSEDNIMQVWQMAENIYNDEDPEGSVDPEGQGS

Columns and labels:
[1] = target: AcGFP1-tagged human iNOS fragment (amino acids 181–335) (human) (UniProt P35228); test: co-IP; Matchmaker chemiluminescent Co-IP: HEK293 co-transfected with AcGFP1-bait and ProLabel-prey; 250 µg lysate, Living Colors full-length GFP polyclonal antibody, protein A/G plus agarose beads overnight at 4 °C; ProLabel luminescence (RLU) of the beads read over time
[2] = target: AcGFP1-tagged whole (full-length) human iNOS (human) (UniProt P35228); test: as above

In the case of “ProLabel-tagged RbBP4 (from UniProt Q09028 1-425)”, the binding [1] is reported as “binds” and the binding [2] is reported as “binds”.
